Assay results published in paper PMC6497666.
These are yes or no findings as the source states them, for the method shown. Some results given as binding are weak or reduced against the parent protein; the word gives no strength.

By UniProt entry, the sequences of proteins in these tests, tags left out. Residues count along the entry.
UniProt P62328: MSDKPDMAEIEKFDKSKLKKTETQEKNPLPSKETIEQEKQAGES
NPHP3 (nephronophthisis 3) prey #1, aa 69-223, GAL4-AD fusion (Q7Z494, residues 69-223): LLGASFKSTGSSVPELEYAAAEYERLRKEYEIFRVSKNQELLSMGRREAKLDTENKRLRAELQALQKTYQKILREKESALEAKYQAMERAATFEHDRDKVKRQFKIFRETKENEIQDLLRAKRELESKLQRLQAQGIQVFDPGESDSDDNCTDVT
NPHP3 (nephronophthisis 3) prey #2~#10, aa 89-223, GAL4-AD fusion (Q7Z494, residues 89-223): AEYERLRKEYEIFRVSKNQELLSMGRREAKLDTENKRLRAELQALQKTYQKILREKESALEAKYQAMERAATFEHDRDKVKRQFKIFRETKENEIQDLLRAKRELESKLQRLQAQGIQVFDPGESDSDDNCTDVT

Target: GAL4 DNA-binding domain (BD)-fused Tβ4 (Thymosin β-4) bait (human) (UniProt P62328)
Test: two-hybrid; GAL4-BD-Tβ4 bait (pGBKT) against human thymus cDNA GAL4-AD library (pACT2) in yeast PBN204; reporters URA3, ADE2, lacZ; preys re-introduced with bait and confirmed on SD-LWU and SD-LWA

binding | Substance
binds | NPHP3 (nephronophthisis 3) prey #1, aa 69-223, GAL4-AD fusion (from UniProt Q7Z494-1 69-223) (domain or fragment)
binds | NPHP3 (nephronophthisis 3) prey #2~#10, aa 89-223, GAL4-AD fusion (from UniProt Q7Z494-1 89-223) (domain or fragment)
